Test results: paper PMC4974575
These are yes or no findings as the source states them, for the method shown. In cells and extracts the contact can be indirect. Some results given as binding are weak or reduced against the parent protein; the word gives no strength. Where a sequence is shown, tags or fusion partners need not be part of it.

Amino acid sequences for entries named in this document (tags omitted). Residues count along the entry.
UniProt P52799, residues 28-333: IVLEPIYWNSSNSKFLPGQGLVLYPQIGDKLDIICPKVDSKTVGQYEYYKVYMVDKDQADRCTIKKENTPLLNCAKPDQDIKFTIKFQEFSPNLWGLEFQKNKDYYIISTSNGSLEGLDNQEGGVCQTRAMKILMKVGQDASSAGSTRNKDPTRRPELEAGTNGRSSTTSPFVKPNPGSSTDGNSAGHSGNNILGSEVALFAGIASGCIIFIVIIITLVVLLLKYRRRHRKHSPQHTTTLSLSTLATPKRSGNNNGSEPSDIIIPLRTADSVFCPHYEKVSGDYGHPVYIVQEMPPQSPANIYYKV
UniProt P52800, residues 29-336: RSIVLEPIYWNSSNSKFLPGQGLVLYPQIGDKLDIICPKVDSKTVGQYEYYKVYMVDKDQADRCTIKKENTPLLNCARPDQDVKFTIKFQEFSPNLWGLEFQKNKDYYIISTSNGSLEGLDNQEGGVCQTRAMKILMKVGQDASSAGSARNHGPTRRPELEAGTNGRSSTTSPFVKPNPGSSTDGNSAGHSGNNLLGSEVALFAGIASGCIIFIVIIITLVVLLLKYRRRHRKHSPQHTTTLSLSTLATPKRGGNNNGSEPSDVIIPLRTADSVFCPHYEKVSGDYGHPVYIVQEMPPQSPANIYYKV

Target: T1, recombinant mouse EphB4-Fc (mouse) (UniProt P54761)
T1 sequence: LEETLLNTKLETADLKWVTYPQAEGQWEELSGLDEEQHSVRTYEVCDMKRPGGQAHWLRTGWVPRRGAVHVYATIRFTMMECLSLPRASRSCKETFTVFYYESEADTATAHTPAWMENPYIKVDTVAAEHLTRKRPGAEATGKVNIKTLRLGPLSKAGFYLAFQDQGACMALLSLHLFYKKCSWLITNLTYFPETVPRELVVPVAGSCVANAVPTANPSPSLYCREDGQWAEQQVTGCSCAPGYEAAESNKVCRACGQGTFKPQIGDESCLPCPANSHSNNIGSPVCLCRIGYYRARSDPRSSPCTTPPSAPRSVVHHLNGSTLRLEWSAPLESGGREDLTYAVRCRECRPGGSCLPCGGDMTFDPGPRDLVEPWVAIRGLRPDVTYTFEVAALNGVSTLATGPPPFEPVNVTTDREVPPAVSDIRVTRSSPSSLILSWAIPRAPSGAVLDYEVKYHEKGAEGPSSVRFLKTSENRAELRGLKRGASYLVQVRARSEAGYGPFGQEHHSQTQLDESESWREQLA
Assay: pull-down; cells stimulated for 1 h with pre-clustered EphB4-Fc (1 ug/ml final) before lysis in LBA buffer; EphB4 pull-down as described in ref. 69; immunoblot with anti-ephrinB2; LN229 cells with scrambled control or ZEB2 shRNA at 21% or 1% O2 for 18 h; only the target purified

Row | Substance | binding
1 | ephrinB2 (human glioblastoma cells) (from UniProt P52799 28-333) (ligand) | binds
2 | ephrinB2 (murine glioma cells) (from UniProt P52800 29-336) (ligand) | binds
